Out of some 1,200 compounds screened, about 20 (2%) were called active. About 23% were inconclusive and are not listed. Calls come from the whole dose curve; as a rule, active = well fitted inhibition curve with a large enough effect; inconclusive = small, poorly fitted or top-dose-only effect; inactive = no such curve, though single readings can be large or run the other way. The list shows a part of the results.
The compounds below were run against Transcriptional regulator ERG (Homo sapiens) (UniProt P11308) (assay: qHTS for Small Molecule Inhibitors of the ERG Ets/DNA interaction: HTRF assay against cherry picks). Conditions: His-ERG Ets domain with biotin-DNA; series mostly up to 154 µM; activity change, negative = inhibition: at the top concentration.
In short: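 Compounds were incubated 10 min at RT with ERG Ets domain and biotinylated DNA (each added as 200 nM solution) in pH 7.5 Tris/KCl/EDTA/DTT buffer. Binding was read as FRET (ex 320, em 615 and 665 nm) between anti-His donor and streptavidin acceptor.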
Potency is the fitted concentration of half-maximal effect.

Chains of the proteins cited; added tags and fusions are not shown. Lines headed by an entry give the natural chain unless they say otherwise; changes in a name come on top.
UniProt P11308: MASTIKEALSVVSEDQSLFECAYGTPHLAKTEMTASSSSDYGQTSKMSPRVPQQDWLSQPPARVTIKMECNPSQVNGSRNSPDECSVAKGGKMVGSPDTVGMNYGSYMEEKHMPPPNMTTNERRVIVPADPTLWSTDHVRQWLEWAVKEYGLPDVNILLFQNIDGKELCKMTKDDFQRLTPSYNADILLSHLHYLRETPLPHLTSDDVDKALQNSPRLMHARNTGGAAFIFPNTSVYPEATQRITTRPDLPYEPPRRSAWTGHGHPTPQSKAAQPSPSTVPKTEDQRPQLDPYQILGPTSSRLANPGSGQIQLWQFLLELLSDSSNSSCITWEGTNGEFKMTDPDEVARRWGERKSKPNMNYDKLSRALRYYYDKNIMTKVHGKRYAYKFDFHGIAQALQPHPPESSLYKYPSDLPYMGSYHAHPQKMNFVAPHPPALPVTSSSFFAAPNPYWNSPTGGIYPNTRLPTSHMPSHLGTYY

Activity change, negative = inhibition, inactive:
O=C1NCCCN1Cc1ccc(F)cc1Cl -26.5%, CN1/C(=C\C(=O)c2cccs2)C(C)(C)c2ccccc21 -14.4%, CC1CC(C)CN(S(=O)(=O)c2ccc(NC(=O)CN3C(=O)NC(C)(c4ccccc4)C3=O)cc2)C1 (centres undefined) -6.37%, CCOc1ccc(NC(=O)Cc2c(C(=O)O)n(C)c3ccccc23)cc1 -27.2%, COc1cccc(CC2(CO)CCN(S(=O)(=O)N(C)C)CC2)c1 -7%, CCOCCCNCC(=O)Nc1ccc(S(=O)(=O)NC(C)CC)cc1 (centres undefined) -10.7%, Cc1cc2nc(-c3ccc[nH]c3=O)n(Cc3ccccc3F)c2cc1C -17.8%, O=C(O)CN1C(=O)C(=O)N(Cc2ccc(C(F)(F)F)cc2)C1=O -2.71%, CCc1cccc(CC)c1-n1c(-c2cccnc2)n[nH]c1=S -20%, CC(C)C1NC(=S)N(Cc2ccccc2)C1=O (centres undefined) -29%, Cc1ccc(S(=O)(=O)N(CC(=O)NCc2cccnc2)c2ccc(F)cc2)cc1 -10.8%, CCOc1ccc(/C=C2\SC(=S)N(C)C2=O)cc1OC -19.3%, COc1ccc(C(=O)Nc2ccnn2C2CCN(Cc3cn(C)nc3C)CC2)cc1 -5.15%, CC(C)NS(=O)(=O)c1ccc(CCC(=O)NCc2ccncc2)cc1 -24.6%, O=C(NC(=S)NNS(=O)(=O)c1ccc(Cl)cc1)c1cccnc1 0.106%, O=C(NCc1cccc(Cl)c1)c1ccncc1 -9.66%, Cc1ccc(C2=NN(CC(=O)NCCN(C)C)C(=O)CC2)cc1 -25.4%, CCOc1cc(CNc2ccc(O)cc2)ccc1OCc1ccc(Cl)cc1 -8.49%, Cn1c(Cl)cnc1C1CC(=O)c2cc(Cl)ccc2O1 (centres undefined) -20.8%, CCCc1c(OCCCCc2nn[nH]n2)ccc(C(C)=O)c1O -7.64%, OC(CNc1ncnc2sccc12)c1ccccc1 (centres undefined) -4.08%, OCCN1CCN(CCCN2c3ccccc3Sc3ccc(Cl)cc32)CC1 -8.81%, CCOC(=O)COc1ccccc1/C=N/O -4.3%, COc1ccccc1N1CCN(C(=O)CSc2nc(C)c(Cc3ccccc3)c(=O)[nH]2)CC1 -4.99%, CCOC(=O)c1ccc(-c2ccc(/C=C(\C#N)C(=O)Nc3cccc(C)c3)o2)cc1 -11%, Nc1cc(-c2nn[nH]n2)ccc1F -14.6%, CC(C)(C)SC(=O)CC1NS(=O)(=O)OC2CCCCC12 (centres undefined) -25.9%, COc1ccc(C(=S)N2CCN(c3ccccc3C)CC2)cc1OC -3.82%, CCOC(=O)NC(=S)Nc1ccc(C(C)(C)C)cc1Br -30.9%, CCN(CC(=O)Nc1ccc(N2CCOCC2)cc1)CC(=O)NC(C)(C)C 9.44%, COCc1cc(C)nc(SCC(=O)Nc2ccc3c(c2)OCCO3)c1C#N -3.29%, COc1ccc(S(=O)(=O)N2CCc3ccccc32)cc1C(=O)N(CC(C)C)C1CCS(=O)(=O)C1 (centres undefined) -14.9%, COc1ccc(-c2csc3ncnc(N4CCN(S(=O)(=O)c5ccccc5C#N)CC4)c23)cc1 206%, O=C(NCc1ccccc1)N1CCNCC1 -7.75%, CC1(C)C2CCC1(C)C(NCC(O)COc1ccc(C#N)cc1)C2 (centres undefined) -2.02%, CN1CCN(C(=O)C2=C[C@@H](C(C)(C)C)C[C@@H](OCc3ccc(CO)cc3)O2)CC1 -24.8%, CNC(=O)c1cccc(-n2c(C)nc3cccnc32)c1C 3.18%, CCOc1ccc(C(CC(=O)O)NC(=O)Cc2ccc(Cl)cc2)cc1 (centres undefined) -9.92%, COc1ccc(NC(=O)C2CC(=O)n3c(nc4ccccc43)N2)cc1 (centres undefined) -19.4%, Cc1cc(NC(=O)COc2ccc(F)c(Cl)c2)no1 -2.39%, COc1ccc(S(=O)(=O)NCC2CC3C=CC2C3)cc1OC (centres undefined) -23.8%, CC(C)C(=O)Nc1ccc(-c2nc3ncccc3o2)cc1 -29.3%, Cc1ccccc1OCC(=O)Nc1ccc2[nH]ncc2c1 -5.15%, COc1cc(/C=C/C(=O)OCC(=O)NC(=O)NC2CCCCC2C)ccc1OC(F)F (centres undefined) -0.477%, Cc1nc(Nc2cccc(F)c2)c2oc3ccccc3c2n1 -29.2%, COc1ccc(C)cc1N(C(=O)c1ccc(C#N)cc1)C1=NC(C)(C)CS1 -32%, Cc1ccccc1NC(=O)c1ccccc1-c1ccccc1 -25.8%, O=C(c1c(F)cccc1Cl)N1CCN(c2ccccn2)CC1 -11%, COc1ccc(NS(=O)(=O)c2cccc(NC(=O)NC3CCCCC3)c2)cc1 -35.2%, Nc1ccc2[nH]ncc2c1 -70.6%, COc1ccc(CNC(=O)N[C@@H](Cc2c[nH]c3ccccc23)C(=O)O)cc1 -23.2%, Cc1ccc(NC(=O)Cc2c(O)c3ccccc3[nH]c2=O)c(C)c1 -9.39%, O=C(CCc1c[nH]c2ccccc12)NCc1ccco1 -5.25%, CCN(C(=O)COC(=O)c1ccc(=O)n(Cc2ccccc2)n1)C1CCS(=O)(=O)C1 (centres undefined) -38%, Cc1ccc(OCCn2cc(/C=N/NC(=O)c3ccncc3)c3ccccc32)cc1 -26.7%, COc1ccc(C(=O)Nc2nc(-c3ccc(OC)cc3)c(-c3ccc([N+](=O)[O-])cc3)s2)cc1 -11.9%, CC(C)=CCOc1ccc2c(C)c(CC(=O)N3C[C@H]4C[C@@H](C3)c3cccc(=O)n3C4)c(=O)oc2c1C -20.2%, COc1ccccc1OCC(O)CN1CCN(CC(=O)Nc2c(C)cccc2C)CC1 (centres undefined) -24.2%, COc1ccc(OCCn2c(=O)sc3ccccc32)cc1 -23%, CCOC(=O)C(=O)c1c(-c2ccccc2)nc2ccccn12 -21.9%, O=C(CCNS(=O)(=O)c1ccc2c(c1)CCN2C(=O)C1CC1)Nc1ccc(F)cc1F -16.4%, Cc1ccc(-c2nc(CN3CCCC(C(=O)N4CCOCC4)C3)c(C)o2)cc1 (centres undefined) -9.66%, COCC(=O)NCc1ccc2c(c1)cc(C)n2C -22.5%, Cc1cc(C)c(/C=C2\C(=O)Nc3ccccc32)[nH]1 -28.8%, COc1cccc(NC(=O)NNC(=O)c2ccc3c(c2)NC(=O)C(C)(C)O3)c1 -10.2%, COC(=O)C(CCSC)NC(=O)c1cc2c(n(-c3ccccc3)c1=O)CC(C)(C)CC2=O (centres undefined) -23.7%, O=C(/C=C/c1ccccc1)NCCc1nc2ccccc2[nH]1 -14.6%, O=C(NCCN1CCN(Cc2ccccc2Cl)CC1)Nc1ccccc1 -28.7%, CC1(C)CC(=O)C2=C(C1)Nc1ccccc1NC2c1nc2ccccc2[nH]1 (centres undefined) -40.4%, COc1cc(CO)ccc1OCC(=O)Nc1cccc2ccccc12 -34.3%, O=C(CN1C(=O)NC2(CCCC2)C1=O)Nc1nc2ccccc2s1 -25.7%, CC(=O)Oc1ccc(C(=O)Nc2ccccc2C(=O)Nc2ccc(C(=O)O)cc2)cc1 -15.4%, COc1cc(NC(=O)COC(=O)CNC(=O)C2CCCCC2)cc(OC)c1 -17.5%, COc1ccc(CNCCC2(C(C)C)CCOC(C)(C)C2)cc1 (centres undefined) -13.4%, COc1ccc(-c2cc(C(F)(F)F)n3nc(C(=O)N(C)Cc4ccccc4)cc3n2)cc1OC -4.46%, CC(=O)Nc1cccc(S(C)(=O)=O)c1 -12%, COCCn1c(=O)c2c(nc3n2CC(C)CN3CCc2ccccc2)n(C)c1=O (centres undefined) -26.4%, CC(C)c1ccc(NC(=O)CSc2nc(-c3ccccc3F)nc3nc[nH]c23)cc1 384%, COc1ccc(CCNC(=O)c2cccc(S(=O)(=O)N3CCCC3)c2)cc1 -24.1%, CCn1nc(C)cc1C(=O)N1CCCC(N2CCN(Cc3ccc4c(c3)OCO4)CC2)C1 (centres undefined) -15.2%, COc1cnn(-c2cccc(Cl)c2)c(=O)c1Cl -10.6%, O=C(COC(=O)COc1ccc(Cl)cc1)NCCCc1ccccc1 -25.1%, COc1ccc(CC(=O)OCC(=O)c2ccc(OC)cc2)cc1 -23.3%, O=C(CCC1CCCN(C(=O)c2ccsc2)C1)NCc1ccc(F)c(F)c1 (centres undefined) -5.3%, CC(=O)Nc1ccc(S(=O)(=O)NCC(=O)OCC(=O)NCc2ccco2)cc1 3.34%, CC(=O)NNc1cc(N2CCOCC2)nc(N2CCOCC2)n1 0.53%, CC(C)n1cc(/C=N/NC(=O)COc2cccc3cccnc23)c2ccccc21 -21.4%, CC(C)CNC(=O)CCc1nc(-c2ccccc2)no1 -8.75%, COc1ccccc1NS(=O)(=O)c1cc(C(=O)N2CCCC2)ccc1C -12.7%, CN(C(=O)CSc1nc(-c2ccccc2)c(-c2ccccc2)o1)C1CCS(=O)(=O)C1 (centres undefined) -10.6%, Cc1cccc(C)c1OCC(=O)N(Cc1ccc(Cl)cc1)C1CCS(=O)(=O)C1 (centres undefined) 4.62%, O=C(O)CNC(=O)CC1S/C(=N/N=C/c2ccccc2O)NC1=O (centres undefined) -32.7%, Cc1cccc(C)c1NC(=O)C1(N2C(=O)CC2c2ccccc2)CCCCC1 (centres undefined) 0.955%, COc1ccc(NC(=O)COc2ccccc2Cc2ccccc2)cn1 -15.4%, NC(=O)c1cc(S(=O)(=O)NCCc2ccccc2)cs1 -10.8%, NC(=O)c1ccccc1O -9.23%, O=C(/C=C/c1ccc(Br)cc1)c1ccc(NC2=NCCCS2)cc1 -12.7%, CCCCC1=CC2=CC(=O)C(C)(OC(=O)CC)C(=O)C2=CN1CCOC (centres undefined) -15.9%, COc1ccc(C2c3[nH]c4ccccc4c3C[C@H]3C(=O)N(c4ccccc4C(=O)N4CCC[C@@H]4C(=O)O)C(=O)N23)cc1 (some centres undefined) -21.1%, COCCCC/C(=N\OCCN)c1ccc(C(F)(F)F)cc1 -29.4%, COc1ccc([N+](=O)[O-])c(OC)c1C(=O)NC(=O)Nc1c(F)c(F)c(F)c(F)c1F -14.5%, CCOC(=O)C1CCCN(C(=O)c2cc3cc(OC)c(OC)cc3[nH]2)C1 (centres undefined) -21.2%, Oc1ccc(NCc2cccc(OCc3ccc(F)cc3)c2)cc1 7.9%, CS(=O)(=O)c1ccc([C@@H](O)[C@@H](CF)NC(=O)C(Cl)Cl)cc1 -22.9%, COCCN(C(=O)COC(=O)C1(c2ccccc2)CC1)c1c(N)n(CC(C)C)c(=O)[nH]c1=O -5.04%, O=C(COc1ccc(S(=O)(=O)N2CCOCC2)cc1Cl)NCCCn1ccnc1 -21.4%

Potency, active:
CN(C)c1ccc2c(c1)C(=NO)c1ccccc1-2 70.8 µM, O=C1c2ccccc2C(=O)c2c1ncn2-c1ccccc1 15.8 µM, O=C1c2ccc3c4c(ccc(c24)C(=O)N1CCCCO)C(=O)N(CCCCO)C3=O 20 µM
